{"source": "patent US20260112450A1", "about": "“METHODS FOR SELECTION OF CANCER PATIENTS FOR ANTI-ANGIOGENIC AND IMMUNE CHECKPOINT BLOCKAGE THERAPIES AND COMBINATIONS THEREOF” (Washington University, priority 2022, published 2026)", "key": {"metastatic renal cancer [1]": {"tested_on": "metastatic renal cancer", "experiment": "Javelin Renal 101 clinical trial: progression free survival, re-evaluated by angio-immune subtype", "assay_type": "in vivo, human", "settings": "comparison of C1, C2 and C3 within one treatment arm", "source_text": "Immunotherapy datasets: Pre-treatment TPM normalized RNA sequencing data from anti-PD1/L1 and anti-CTLA4 treated cohorts were downloaded for the studies as described in Table 1. Studies were selected based on the following criteria: >20 samples for enrichment calculation, RNA sequencing of pre-treatment biopsies, and only anti-PD1/PDL1 treated patients. Gene signature enrichment and molecular subtypes were derived as described elsewhere in the manuscript. Survival and response rates to treatment when available were compared among angio-immune clusters.\nQuantification and Statistical Analysis: Unless indicated elsewhere, all visualizations were completed in GraphPad Prism 9. GraphPad Prism 9 was used for all statistical analysis. Data is presented as mean±standard error of mean. One way ANOVA was used for comparison across more than two groups. Non-parametric tests were used when data was not normally distributed. Log rank tests were used for all survival analysis. Alpha value of 0.05 was used throughout the study.\nThe approval of the combination of avelumab, an anti-PDL1, and axitinib, a small molecule tyrosine kinase inhibitor, for the first-line treatment of metastatic renal cancer was provided in 2020. […]\nThe enrichment of the 91 angio-immune signatures was scored using RNA sequencing data from pre-treatment biopsies. […]"}, "metastatic renal cancer [2]": {"tested_on": "metastatic renal cancer", "settings": "first-line treatment of metastatic renal cancer; data behind the 2020 approval; cited from earlier work"}}, "note": "At least one compound was matched to its structure with a doubt left.", "data": [{"smiles": "CCN(CC)CCNC(=O)c1c(C)[nH]c(/C=C2\\C(=O)Nc3ccc(F)cc32)c1C", "note": "[sunitinib]", "values": [{"measurement": "differences in median PFS between angio-immune molecular subtypes", "setting": "metastatic renal cancer [1]", "result": "no significant differences"}, {"measurement": "median PFS", "setting": "metastatic renal cancer [2]", "result": 8.4, "unit": "months"}]}]}
